# Test results from publication PMC8753592, “Long-acting capsid inhibitor protects macaques from repeat SHIV challenges” (Nature, 2021).
# “And” between values parts separate entries of the source, which are not always exact repeats. Equal entries are not always repeated. Where two headings read alike, the source gives them in different places. The source gives many values for each of these; only a part stands here.
# Columns and labels:
# [1] = tested on: SHIV-SF162P3; assay type: cell-based, SHIV (in rhesus macaque, Macaca mulatta, PBMCs); conditions: experiments 1–7
# Description: Freshly isolated PBMCs from three male rhesus macaque (M. mulatta) donors of Indian origin (HumanCells Biosciences) were cultured in RPMI-1640 cell culture medium (Life Technologies) supplemented with 10% heat-inactivated FBS (Hyclone), 2 mM glutamine and 100 U ml^−1 penicillin plus 100 μg ml^−1 streptomycin (complete RPMI). Before their use in the antiviral assays, rhesus PBMCs from three independent donors were pooled and activated at a density of 3 × 10^6 cells per ml for 72 h at 37 °C by the addition of 1 μg ml^–1 phytohemagglutinin (PHA, Sigma-Aldrich) and 50 U ml^−1 recombinant human interleukin-2 (IL-2) (Roche Diagnostics).
# PHA/IL-2-stimulated rhesus PBMCs were infected in bulk culture with SHIV-SF162P3 at a concentration of 130 pg of p27 equivalent per million PBMCs. The cells were maintained in suspension by gently rocking the cultures mixed with virus inoculum for 3 h at 37 °C. The cells were then pelleted by centrifugation at 500g for 5 min, washed twice with complete RPMI to remove any unadsorbed virus and seeded into 96-well plates at a cell density of 2 × 10^5 cells per well in 100 μl. […] The cultures were incubated in a 5% CO2 incubator at 37 °C for 7 days. Cell-free supernatants derived from the PBMC cultures were harvested 7 days after infection, the amount of SHIV present was quantified using an SIV p27 antigen-capture ELISA assay (5436, Advanced Bioscience Laboratories) performed according to the manufacturer’s protocol, and the data were acquired using SoftMax Pro 6.3.1 software (Molecular Devices).
# [2] = tested on: SHIV-SF162P3; experiment: Repeated escalating-dose rectal SHIV challenge study (plasma viraemia by gag RT-qPCR); assay type: in vivo, rhesus macaques of Indian origin
# Description: For the challenge study, 24 outbred rhesus macaques of Indian origin were assigned to the three study groups with even sex and weight distributions. All animals were housed at Alpha Genesis (Yemassee, SC), and all procedures were conducted in compliance with all relevant local, state and federal regulations and were approved by the Alpha Genesis IACUC. […] The injection sites were monitored daily by veterinary staff for 3 days. Beginning in week 1, animals in all three groups were challenged by the intrarectal route with 1 ml of RPMI containing the specified dilution of a 3.62 × 10^3 TCID50 SHIV-SF162P3 stock. At each respective time point, the challenges were performed on the same day, using the same virus stock and inoculation method across the three groups. Whole blood was collected and processed into plasma and PBMCs as necessary to assess routine haematology, clinical chemistry, viral load and serology as well as for bioanalysis of drug levels. The animals were considered to be protected if they remained SHIV negative by plasma PCR assay and seronegative by enzyme immunoassay throughout the 15-week challenge phase and the 9-week follow-up.
# RNA was extracted from rhesus macaque plasma using a QIAcube high-throughput instrument and an IndiSpin QIAcube HT Pathogen kit (Qiagen). RNA standards using the SIV gag sequence were generated by AmpliCap-Max T7 High-Yield Message Maker kit (Cell Script) and were purified using an RNA Clean and Concentrator kit (Zymo Research). Log dilutions of the RNA were included with each RT–qPCR assay. Reverse transcription of standards and samples was performed using a Superscript III VILO kit (Invitrogen). qPCR was performed using forward primer 5′-[…]-3′, reverse primer 5′-[…]-3′ and fluorescently labelled primer 5′-[…]-3′ on a Quantstudio 6 Flex system (Applied Biosystems). The assay LOD was 200 copies gag per ml.
# Protection against acquired infection was analysed using Cox proportional hazard regression models based on the exact partial likelihood for discrete time expressed in weeks, which explicitly accounts for the time-varying viral challenge dose in the model. The hazard ratios with 95% confidence intervals for per-exposure relative reductions in acquisition risk were calculated for the GS-CA1-treated groups, and the results were compared with those for the vehicle-treated control group. Comparisons were considered statistically significant at a two-sided alpha level of 0.05 (P < 0.05). Statistical analyses were performed using GraphPad Prism version 8.1.2, SAS version 9.4 and R Studio software version 4.0.5.
compound,measurement,setting,value
CC(C)(C#Cc1ccc(-c2ccc(Cl)c3c(NS(=O)(=O)C4CC4)nn(CC(F)F)c23)c([C@H](Cc2cc(F)cc(F)c2)NC(=O)Cn2nc(C(F)F)c3c2C(F)(F)[C@@H]2C[C@H]32)n1)S(C)(=O)=O [GS-CA1],"% Virus Production, replicates n1–n3",[1]; 0.011 nM,129% and 140% and 95% and 64% and 62% and 78%
same,"% Virus Production, replicates n1–n3",[1]; 0.034 nM,100% and 113% and 84% and 46% and 63% and 77%
same,"% Virus Production, replicates n1–n3",[1]; 0.103 nM,106% and 94% and 96% and 64% and 68% and 70%
same,"% Virus Production, replicates n1–n3",[1]; 0.309 nM,133% and 83% and 67% and 60% and 55% and 77% and 114% and 90%
same,"% Virus Production, replicates n1–n3",[1]; 0.926 nM,15% and 30% and 21% and 19% and 49%
same,"% Virus Production, replicates n1–n3",[1]; 2.778 nM,2.16% and 2.5% and 3% and 1.09% and 1.19% and -0.328% and 0.0863% and 0.4%
same,"% Virus Production, replicates n1–n3",[1]; 8.333 nM,1.26% and 2.41% and 2% and 0.764% and -0.341% and -0.19% and -0.0556% and 1.21% and 0.0342%
same,"% Virus Production, replicates n1–n3",[1]; 25.000 nM,-0.742% and -0.504% and -0.141% and 1.27% and 0.894% and -0.0427% and -0.107%
same,Plasma SHIV viral load,"[2]; GS-CA1 150mg/kg, Week 1, individual animals",200 gag RNA copies per ml
same,Plasma SHIV viral load,"[2]; GS-CA1 150mg/kg, Week 2, individual animals",200 gag RNA copies per ml
same,Plasma SHIV viral load,"[2]; GS-CA1 150mg/kg, Week 3, individual animals",200 gag RNA copies per ml
same,Plasma SHIV viral load,"[2]; GS-CA1 150mg/kg, Week 4, individual animals",200 gag RNA copies per ml
same,Plasma SHIV viral load,"[2]; GS-CA1 150mg/kg, Week 5, individual animals",200 gag RNA copies per ml
same,Plasma SHIV viral load,"[2]; GS-CA1 150mg/kg, Week 6, individual animals",200 gag RNA copies per ml
same,Plasma SHIV viral load,"[2]; GS-CA1 150mg/kg, Week 7, individual animals",200 gag RNA copies per ml
same,Plasma SHIV viral load,"[2]; GS-CA1 150mg/kg, Week 8, individual animals",200 gag RNA copies per ml
same,Plasma SHIV viral load,"[2]; GS-CA1 150mg/kg, Week 9, individual animals",200 gag RNA copies per ml
same,Plasma SHIV viral load,"[2]; GS-CA1 150mg/kg, Week 10, individual animals",200 gag RNA copies per ml
same,Plasma SHIV viral load,"[2]; GS-CA1 150mg/kg, Week 11, individual animals, 150 mg/kg",200 gag RNA copies per ml and 2317 gag RNA copies per ml
same,Plasma SHIV viral load,"[2]; GS-CA1 150mg/kg, Week 12, individual animals, 150 mg/kg",200 gag RNA copies per ml and 1251253 gag RNA copies per ml
same,Plasma SHIV viral load,"[2]; GS-CA1 150mg/kg, Week 13, individual animals, 150 mg/kg",200 gag RNA copies per ml and 4495324 gag RNA copies per ml and 15543 gag RNA copies per ml
same,Plasma SHIV viral load,"[2]; GS-CA1 150mg/kg, Week 14, individual animals, 150 mg/kg",200 gag RNA copies per ml and 192698 gag RNA copies per ml and 302527 gag RNA copies per ml and 14481 gag RNA copies per ml
same,Plasma SHIV viral load,"[2]; GS-CA1 150mg/kg, Week 15, individual animals, 150 mg/kg",200 gag RNA copies per ml and 1636073 gag RNA copies per ml and 41252 gag RNA copies per ml and 436449 gag RNA copies per ml
same,Plasma SHIV viral load,"[2]; GS-CA1 150mg/kg, Week 16, individual animals, 150 mg/kg",43433 gag RNA copies per ml and 200 gag RNA copies per ml and 144532 gag RNA copies per ml and 37186 gag RNA copies per ml and 15508 gag RNA copies per ml and 62513 gag RNA copies per ml
same,Plasma SHIV viral load,"[2]; GS-CA1 150mg/kg, Week 17, individual animals, 150 mg/kg",28104 gag RNA copies per ml and 200 gag RNA copies per ml and 128422 gag RNA copies per ml and 4020 gag RNA copies per ml and 5872 gag RNA copies per ml and 1974 gag RNA copies per ml and 76901 gag RNA copies per ml
same,Plasma SHIV viral load,"[2]; GS-CA1 150mg/kg, Week 18, individual animals, 150 mg/kg",8535 gag RNA copies per ml and 200 gag RNA copies per ml and 144695 gag RNA copies per ml and 18625 gag RNA copies per ml and 13017 gag RNA copies per ml and 2250 gag RNA copies per ml and 14905 gag RNA copies per ml
same,Plasma SHIV viral load,"[2]; GS-CA1 150mg/kg, Week 19, individual animals, 150 mg/kg",2197 gag RNA copies per ml and 200 gag RNA copies per ml and 23783 gag RNA copies per ml and 733 gag RNA copies per ml and 4607 gag RNA copies per ml and 1586 gag RNA copies per ml and 872 gag RNA copies per ml
same,Plasma SHIV viral load,"[2]; GS-CA1 150mg/kg, Week 20, individual animals, 150 mg/kg",200 gag RNA copies per ml and 533 gag RNA copies per ml and 294 gag RNA copies per ml and 1229 gag RNA copies per ml
same,Plasma SHIV viral load,"[2]; GS-CA1 150mg/kg, Week 21, individual animals, 150 mg/kg",200 gag RNA copies per ml and 8674 gag RNA copies per ml and 2199 gag RNA copies per ml
same,Plasma SHIV viral load,"[2]; GS-CA1 150mg/kg, Week 22, individual animals, 150 mg/kg",200 gag RNA copies per ml and 2557 gag RNA copies per ml and 493 gag RNA copies per ml
same,Plasma SHIV viral load,"[2]; GS-CA1 150mg/kg, Week 23, individual animals, 150 mg/kg",200 gag RNA copies per ml and 1150 gag RNA copies per ml and 1806 gag RNA copies per ml and 218 gag RNA copies per ml
same,Plasma SHIV viral load,"[2]; GS-CA1 150mg/kg, Week 24, individual animals, 150 mg/kg",200 gag RNA copies per ml and 724 gag RNA copies per ml and 1367 gag RNA copies per ml
same,Plasma SHIV viral load,"[2]; GS-CA1 300mg/kg group, Week 21, individual animals, 300 mg/kg",61496 gag RNA copies per ml
same,Plasma SHIV viral load,"[2]; GS-CA1 300mg/kg group, Week 22, individual animals, 300 mg/kg",30155 gag RNA copies per ml
same,Plasma SHIV viral load,"[2]; GS-CA1 300mg/kg group, Week 23, individual animals, 300 mg/kg",50155 gag RNA copies per ml
same,Plasma SHIV viral load,"[2]; GS-CA1 300mg/kg group, Week 24, individual animals, 300 mg/kg",19362 gag RNA copies per ml
same,Plasma SHIV viral load,"[2]; GS-CA1 300mg/kg, Week 1, individual animals",200 gag RNA copies per ml
same,Plasma SHIV viral load,"[2]; GS-CA1 300mg/kg, Week 2, individual animals",200 gag RNA copies per ml
same,Plasma SHIV viral load,"[2]; GS-CA1 300mg/kg, Week 3, individual animals",200 gag RNA copies per ml
same,Plasma SHIV viral load,"[2]; GS-CA1 300mg/kg, Week 4, individual animals",200 gag RNA copies per ml
same,Plasma SHIV viral load,"[2]; GS-CA1 300mg/kg, Week 5, individual animals",200 gag RNA copies per ml
same,Plasma SHIV viral load,"[2]; GS-CA1 300mg/kg, Week 6, individual animals",200 gag RNA copies per ml
same,Plasma SHIV viral load,"[2]; GS-CA1 300mg/kg, Week 7, individual animals",200 gag RNA copies per ml
same,Plasma SHIV viral load,"[2]; GS-CA1 300mg/kg, Week 8, individual animals",200 gag RNA copies per ml
same,Plasma SHIV viral load,"[2]; GS-CA1 300mg/kg, Week 9, individual animals",200 gag RNA copies per ml
same,Plasma SHIV viral load,"[2]; GS-CA1 300mg/kg, Week 10, individual animals",200 gag RNA copies per ml
same,Plasma SHIV viral load,"[2]; GS-CA1 300mg/kg, Week 11, individual animals",200 gag RNA copies per ml
same,Plasma SHIV viral load,"[2]; GS-CA1 300mg/kg, Week 12, individual animals",200 gag RNA copies per ml
same,Plasma SHIV viral load,"[2]; GS-CA1 300mg/kg, Week 13, individual animals",200 gag RNA copies per ml
same,Plasma SHIV viral load,"[2]; GS-CA1 300mg/kg, Week 14, individual animals",200 gag RNA copies per ml
same,Plasma SHIV viral load,"[2]; GS-CA1 300mg/kg, Week 15, individual animals",200 gag RNA copies per ml
same,Plasma SHIV viral load,"[2]; GS-CA1 300mg/kg, Week 16, individual animals",200 gag RNA copies per ml
same,Plasma SHIV viral load,"[2]; GS-CA1 300mg/kg, Week 17, individual animals, 300 mg/kg",9063 gag RNA copies per ml and 13193 gag RNA copies per ml and 200 gag RNA copies per ml and 13143 gag RNA copies per ml
same,Plasma SHIV viral load,"[2]; GS-CA1 300mg/kg, Week 18, individual animals, 300 mg/kg",200 gag RNA copies per ml and 6116 gag RNA copies per ml and 1633235 gag RNA copies per ml
same,Plasma SHIV viral load,"[2]; GS-CA1 300mg/kg, Week 19, individual animals, 300 mg/kg",200 gag RNA copies per ml and 123639 gag RNA copies per ml
same,Plasma SHIV viral load,"[2]; GS-CA1 300mg/kg, Week 20, individual animals, 300 mg/kg",200 gag RNA copies per ml and 17958 gag RNA copies per ml
same,Plasma SHIV viral load,"[2]; GS-CA1 300mg/kg, Week 21, individual animals, 300 mg/kg",200 gag RNA copies per ml and 61496 gag RNA copies per ml
same,Plasma SHIV viral load,"[2]; GS-CA1 300mg/kg, Week 22, individual animals, 300 mg/kg",200 gag RNA copies per ml and 30155 gag RNA copies per ml
same,Plasma SHIV viral load,"[2]; GS-CA1 300mg/kg, Week 23, individual animals, 300 mg/kg",200 gag RNA copies per ml and 50155 gag RNA copies per ml
same,Plasma SHIV viral load,"[2]; GS-CA1 300mg/kg, Week 24, individual animals, 300 mg/kg",200 gag RNA copies per ml and 19362 gag RNA copies per ml
